Values from PubChem BioAssay AID1259405 (NCATS, 2018).

- Test: 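Mouse-designed siRNAs used to find CHO productivity engineering targets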 (primary screen)
- Cell system: Chinese hamster CHO-K1 ovary cells with stable secreted eGFP expression
- Reagents: single siRNA against mouse genes, 0.8 pmol siRNA per well (2 µl of 400 nM stock)
- Duration: 3 days
- Read-out: 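Percent of the per-plate non-targeting control median for intracellular GFP per well by laser scanning cytometry and for cell viability by ATP luminescence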
- Direction: GFP, % of control: higher = more GFP per well, higher productivity; viability (ATP), % of control: higher = more viable cells (more ATP)
- Active means: 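Called active when intracellular GFP, relative to negative control, is at or above 120%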
Shown is an unselected part of about 50,000 deposited reagents. About 4,000 of all reagents (8%) were called active. 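Mouse siRNA library applied to hamster cells; one well for each siRNA.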 Reagents against one gene are numbered here. No sequences are given here.

Target gene	reagent	GFP, % of control	viability (ATP), % of control	outcome
Sdr9c7	1	103	111	inactive
Sdr9c7	2	86	71	inactive
Sdr9c7	3	80	81.6	inactive
Rab3ip	1	90.8	62.6	inactive
Rab3ip	2	94.3	78.8	inactive
Rab3ip	3	67.1	44.1	inactive
Nlrp10	1	59.6	66.5	inactive
Nlrp10	2	70.9	73	inactive
Nlrp10	3	60.1	47.6	inactive
Tdrd12	1	72.2	47.4	inactive
Tdrd12	2	71.8	68.2	inactive
Tdrd12	3	156	105	active
Stoml2	1	68.6	51.4	inactive
Stoml2	2	90.2	93.3	inactive
Stoml2	3	58.8	63.9	inactive
Ggt5	1	79.4	73.8	inactive
Ggt5	2	21.9	30.6	inactive
Ggt5	3	71.2	77.8	inactive

2 entries from above, set out differently:
Target gene | reagent | GFP, % of control | viability (ATP), % of control | outcome
Stoml2 | 1 | 68.6 | 51.4 | inactive
Stoml2 | 2 | 90.2 | 93.3 | inactive

Continued.
Target gene	reagent	GFP, % of control	viability (ATP), % of control	outcome
Egf	1	67.6	89	inactive
Egf	2	79.8	75	inactive
Mucl2	1	129	145	active
Mucl2	2	66.9	111	inactive
Mucl2	3	74.1	130	inactive
1700029F12Rik	1	156	55.4	active
1700029F12Rik	2	36.2	72	inactive
1700029F12Rik	3	83.2	94.9	inactive
Trmt5	1	108	88.1	inactive
Trmt5	2	110	74.9	inactive
Trmt5	3	89.7	64.1	inactive
Lysmd3	1	56.7	63.2	inactive
Lysmd3	2	73	66.9	inactive
Lysmd3	3	69.9	69.6	inactive
Ripk2	1	51.6	52.8	inactive
Coro2b	1	106	90.5	inactive
Coro2b	2	78.1	82.9	inactive
Coro2b	3	108	89.8	inactive
